# Test results published in PubChem BioAssay AID1471 (National Center for Advancing Translational Sciences (NCATS), 2008).
# “And” between values parts separate entries of the source, which are not always exact repeats. Identical values can stand only once. Hit rate of the full screen: of about 230,000 compounds, about 310 (0.13%) were called active. Inconclusive results, whose numbers are uncertain, are shown with a selection of clear calls. The call rests on the fitted dose curve; in most records, active means well fitted activation curve with a large enough effect; inconclusive means small, poorly fitted or top-dose-only effect; inactive means no such curve, though single readings can be large or run the other way. Potencies of inconclusive entries are doubtful fits and often do not repeat. A structure can be active in one record and inactive in another.
# Assay: qHTS Multiplex Assay to Identify Dual Action Probes in a Cell Model of Huntington: Cytoprotection (ATP); further: nearly all actives have a fitted effect of over 45% in size;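 on cytoprotection (ATP increase): toxic huntingtin expression switched on by the ecdysone agonist tebufenozide; % of control where 0% means no effect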
# Conditions: PC12 HTT-Q103 induced, ATP luminescence, 40 h; cytoprotection (ATP increase): at 56.4 µM (top of the series) unless noted
# How it was run: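 Compounds were screened for protection of PC12 cells against cell death after tebufenozide induction (100 nM final) of mutant Huntingtin exon 1 (Q103) fused to GFP.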
# Potency means the concentration at half of the fitted maximal effect.
SMILES,Potency,cytoprotection (ATP increase)
CC(C)C[C@@H](NC(=O)[C@@H](O)[C@H](N)Cc1ccccc1)C(=O)O,"inconclusive: 0.0063 µM [activator, full curve, poor fit]",
O=C(CSc1c2c(nc3cc(Cl)ccc13)CCCC2)NCCN1CCOCC1,"inconclusive: 3.98 µM [activator, full curve]",
O=C(Nc1ccccc1)N1CCC2(CC1)CCN(C(=O)c1ccco1)CC2,"inconclusive: 0.562 µM [activator, single point]",
CCOc1ccc2nc(NC(=S)NCc3ccccc3)sc2c1,"inconclusive: 3.55 µM [activator, single point]",
O=C(O)c1ccc(C(=O)O)cc1,"inconclusive: 5.62 µM [activator, single point]",
COc1ccc(/C=C/C(=O)c2cc(O)ccc2O)cc1,active: 5.01 µM,
COc1ccc(C2C3(C#N)C(N)=NC(OC)(OC)C23C#N)cc1 (configuration not stated),inactive,
CC1OC(OCC2OC(Oc3c(-c4ccc(OCCO)c(OCCO)c4)oc4cc(OCCO)cc(O)c4c3=O)C(O)C(O)C2O)[C@@H](O)C(O)C1O (some centres not stated),"inconclusive: 0.158 µM [activator, partial curve]",
C[n+]1ccccc1/C=N/O,"inconclusive: 22.4 µM [activator, single point]",
COCCn1c(C)cc(C2=NNC(=Nc3ccc(Cl)cc3Cl)SC2)c1C,"inconclusive: 1.12 µM [activator, partial curve]",
Cc1ccsc1/C=N/NC(=S)NCc1ccccc1,"inconclusive: 3.16 µM [activator, single point]",
C#CCn1ccc(O)c(Cc2c(F)cccc2Cl)c1=O,"inconclusive: 0.794 µM [activator, single point]",
COc1ccc(NC(=O)/C(Cl)=C(/Cl)S(=O)Cc2ccc(C)cc2)cn1 (configuration not stated),"inconclusive: 1 µM [activator, single point]",
Cc1ccc(-c2csc3ncnc(SCC(=O)NCc4ccc5c(c4)OCO5)c23)cc1,"inconclusive: 2.51 µM [activator, partial curve]",
O=C(CCCn1c(=O)oc2ccccc21)NC1CCCCCC1,"inconclusive: 0.158 µM [activator, full curve, poor fit]",
O=C(Cc1ccc(Cl)cc1)NC1CC1,inactive,
N#Cc1cccc(-c2nc(NCc3cccs3)c3ccccc3n2)c1,inactive,
CCN1CCCC1CN(Cc1cc2ccc(C)cc2[nH]c1=O)C(=S)Nc1ccc(OC)cc1 (configuration not stated),"inconclusive: 1.12 µM [activator, partial curve]",
COc1ccc(C(=O)NNC(=O)CSc2nnc(-c3ccc(O)cc3)n2C)cc1,"inconclusive: 3.55 µM [activator, single point]",
COC(=O)C/C=C1\c2ccccc2C(OC)C1C (configuration not stated),,inactive: -6.38% [at 10 µM]
CNCCCN1c2ccccc2CCc2ccccc21,"inconclusive: 2 nM [activator, full curve, poor fit] and inconclusive: 112 nM [activator, full curve, poor fit]",
O=S(=O)(Cc1ccccc1)c1nnnn1-c1ccccc1,"inconclusive: 25.1 µM [activator, single point]",
CCC(C)(C)c1ccc(OCC(=O)N(C)C)c(C(C)(C)CC)c1,"inconclusive: 0.562 µM [activator, single point]",

SMILES,Potency,cytoprotection (ATP increase)
COc1ccc(NC(=O)N2CC3(CCN(S(C)(=O)=O)CC3)C2)cc1,"inconclusive: 3.98 µM [activator, single point]",
COc1cc(S(=O)(=O)Nc2ccncc2)ccc1F,"inconclusive: 0.708 µM [activator, single point]",
CC(C)CCn1c(Sc2nc3ccccc3o2)nc2c1c(=O)[nH]c(=O)n2C,,inactive: -10.9% [at 10 µM]
COc1ccc(Oc2ncc3nc(-c4cccc(C#N)c4)c(=O)n(C)c3n2)cc1,"inconclusive: 0.0071 µM [activator, full curve, poor fit]",
O=C(CCS(=O)(=O)c1ccccc1)NCCS(=O)(=O)c1ccccc1,"inconclusive: 0.355 µM [activator, partial curve, poor fit]",
Cc1ccccc1NC(=S)N(CCc1c(C)[nH]c2ccc(F)cc12)Cc1cccnc1,inactive,
Cc1onc(-c2ccccc2Cl)c1C(=O)O/N=C(\N)c1ccc([N+](=O)[O-])o1,"inconclusive: 0.1 µM [activator, partial curve, poor fit]",
C(=N\Nc1nc(-c2ccccn2)nc2ccccc12)/c1ccccc1,,inactive: -89.1% [at 10 µM]
O=C(COC(=O)COc1cccc(F)c1)NCCC1=CCCCC1,"inconclusive: 5.62 µM [activator, single point]",
Cc1cccc(NC(=O)CSc2nnc(C)c(=O)n2N)c1,"inconclusive: 0.562 µM [activator, partial curve]",
O=C(OCc1ccc([N+](=O)[O-])cc1)c1ccccn1,"inconclusive: 1 µM [activator, partial curve]",
Cc1nn(-c2ccccc2)c(Oc2ccccc2)c1C=O,"inconclusive: 5.62 µM [activator, partial curve, poor fit]",
CCOCCCNC(=O)c1cn(CC(C)C)c(=O)c2cc(OC)c(OC)cc12,,inactive: 8.92% [at 10 µM]
Cn1c(=O)c2c(ncn2CCO)n(C)c1=O,active: 2.51 µM,
O=C1Nc2cc(C(=O)N3CCc4ccccc4C3)ccc2S/C1=C\c1ccccc1,active: 2.82 µM,
O=S(=O)(CCc1ccccc1)c1nc2ccccc2s1,"inconclusive: 31.6 µM [activator, single point]",
O=C(O)CNC(=S)N(Cc1ccccc1Cl)C1CCCC1,inactive,
C#CCN(C)CCCOc1ccc(Cl)cc1Cl,"inconclusive: 0.199 µM [activator, full curve, poor fit]",
Cc1nnc(SCc2nc3sc(C(=O)O)c(C)c3c(=O)[nH]2)s1,"inconclusive: 0.447 µM [activator, partial curve]",
O=C(O)CN(CCN(CC(=O)O)CC(=O)O)CCN(CC(=O)O)CC(=O)O,"inconclusive: 14.1 µM [activator, single point]",
COc1ccc(NC(C)=O)cc1NC(=O)CCn1c(=O)sc2ccccc21,"inconclusive: 0.891 µM [activator, single point]",
O=C(NCC1CCCO1)C1CCC(=O)N1Cc1ccccc1Cl (configuration not stated),"inconclusive: 0.794 µM [activator, single point]",
Cc1c(NC(=O)c2cccs2)cccc1[N+](=O)[O-],"inconclusive: 0.794 µM [activator, full curve, poor fit]",

SMILES,Potency,cytoprotection (ATP increase)
COc1ccc(Cl)cc1NC(=O)C1COc2ccccc2O1 (configuration not stated),"inconclusive: 0.631 µM [activator, single point]",
Cc1nn(Cc2ccccc2)c(C)c1NC(=O)CCCn1nc([N+](=O)[O-])c(Cl)c1C,,inactive: 23.7% [at 10 µM]
CC1CCC(=NNc2ccc(C(F)(F)F)cc2[N+](=O)[O-])CC1 (configuration not stated),"inconclusive: 0.0891 µM [activator, full curve]",
Nc1ncnc(Oc2cccc(C(F)(F)F)c2)c1[N+](=O)[O-],"inconclusive: 7.94 µM [activator, partial curve, poor fit]",
COc1ccc(S(=O)(=O)N(C)CC(=O)NCc2ccco2)cc1,inactive,
Cc1ccc2nc(NC(=O)C3CCCN(S(=O)(=O)c4cccc5nsnc45)C3)sc2c1 (configuration not stated),"inconclusive: 0.316 µM [activator, partial curve, poor fit]",
S=C1NCCNC(=S)NCCOCCOCCN1,"inconclusive: 31.6 µM [activator, single point]",
Cc1ccc(NC2=NC(c3ccc(O)cc3)n3c(nc(C)cc3=O)N2)cc1 (configuration not stated),"inconclusive: 1.26 µM [activator, single point]",
CCC1SC(N)=NC1=O (configuration not stated),"inconclusive: 2 µM [activator, partial curve]",
COc1ccc(OC)c(C(=O)C2COC(=O)C2)c1 (configuration not stated),"inconclusive: 22.4 µM [activator, single point]",
O=C(O)c1ccc(N=NN2CCOCC2)cc1,"inconclusive: 1.26 µM [activator, single point]",
C[C@@]12CC(=O)[C@@H]3[C@@H](CCC4=CC(=O)CC[C@]43C)[C@@H]1CC=C2CC(=O)O,,inactive: -5.09% [at 10 µM]
O=C(Nc1nnc(C2=COCCO2)o1)c1ccc(S(=O)(=O)N2CCCCC2)cc1,inactive,
CCOc1ccc(OCc2ccc(C(=O)N3CCOCC3)cc2)cc1,,inactive: 9.08% [at 10 µM]
CN1C(C(=O)NCc2ccccc2)CC2Cn3c(nc4cc5ccccc5cc43)C21 (configuration not stated),"inconclusive: 1.26 µM [activator, single point]",
Cc1ccc(NS(=O)(=O)c2cc(C(=O)Nc3cccc(N(C)S(C)(=O)=O)c3)ccc2C)c(C)c1,"inconclusive: 1 µM [activator, full curve, poor fit]",
COc1cc(/C=C(\C#N)c2ccccn2)ccc1OCC(=O)Nc1c(Cl)cccc1Cl,"inconclusive: 3.16 µM [activator, single point]",
CCN(CC)S(=O)(=O)c1ccc(C(=O)O)cc1,"inconclusive: 0.562 µM [activator, full curve]",
CCOC(=O)c1c(NC(=S)Nc2ccc(Cl)cc2)sc2c1CCN(C)C2,"inconclusive: 0.355 µM [activator, full curve, poor fit]",
COc1ccc(N2CCN(C(=O)CCNC(=O)c3ccc(C(C)(C)C)cc3)CC2)cc1,inactive,
CC(C)=CCC/C(C)=C/CC/C(C)=C/CC/C(C)=C/CO,"inconclusive: 1.26 µM [activator, single point]",
